Assay [1] addresses HA-tagged Ran-binding protein 10 (HA-RanBP10) (UniProt Q6VN20). Nature of the assay: co-IP; HEK293 cells transfected 24 h; unsynchronized or synchronized 16 h with aphidicolin (3 uM, interphase) or nocodazole (330 nM, prometaphase); IP lysis buffer 150 mM NaCl, 1% NP-40, 50 mM Tris-HCl, 50 mM NaF, pH 7.4; anti-HA (HA.11) or anti-FLAG (M2) with protein G agarose; Western blot. On the technique in general: In western blotting, separated proteins are transferred to a membrane and probed.

Protein sequences, listed by entry. Tags and fused reporters are not part of them.
UniProt Q6VN20: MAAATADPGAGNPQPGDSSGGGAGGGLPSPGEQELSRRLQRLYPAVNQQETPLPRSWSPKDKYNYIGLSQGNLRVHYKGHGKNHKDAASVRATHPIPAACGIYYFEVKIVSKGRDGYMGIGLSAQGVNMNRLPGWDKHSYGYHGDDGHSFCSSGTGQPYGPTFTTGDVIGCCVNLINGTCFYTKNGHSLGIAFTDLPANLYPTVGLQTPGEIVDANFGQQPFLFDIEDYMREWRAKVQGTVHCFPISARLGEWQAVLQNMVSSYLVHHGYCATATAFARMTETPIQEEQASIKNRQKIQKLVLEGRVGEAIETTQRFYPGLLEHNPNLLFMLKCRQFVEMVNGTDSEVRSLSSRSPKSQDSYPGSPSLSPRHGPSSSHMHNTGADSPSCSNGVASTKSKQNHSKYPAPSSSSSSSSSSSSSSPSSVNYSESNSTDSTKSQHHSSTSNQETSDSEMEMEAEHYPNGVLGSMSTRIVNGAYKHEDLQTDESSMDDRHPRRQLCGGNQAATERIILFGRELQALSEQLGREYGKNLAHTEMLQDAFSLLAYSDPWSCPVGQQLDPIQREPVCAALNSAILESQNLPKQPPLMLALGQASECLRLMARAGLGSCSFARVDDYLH
UniProt P03107: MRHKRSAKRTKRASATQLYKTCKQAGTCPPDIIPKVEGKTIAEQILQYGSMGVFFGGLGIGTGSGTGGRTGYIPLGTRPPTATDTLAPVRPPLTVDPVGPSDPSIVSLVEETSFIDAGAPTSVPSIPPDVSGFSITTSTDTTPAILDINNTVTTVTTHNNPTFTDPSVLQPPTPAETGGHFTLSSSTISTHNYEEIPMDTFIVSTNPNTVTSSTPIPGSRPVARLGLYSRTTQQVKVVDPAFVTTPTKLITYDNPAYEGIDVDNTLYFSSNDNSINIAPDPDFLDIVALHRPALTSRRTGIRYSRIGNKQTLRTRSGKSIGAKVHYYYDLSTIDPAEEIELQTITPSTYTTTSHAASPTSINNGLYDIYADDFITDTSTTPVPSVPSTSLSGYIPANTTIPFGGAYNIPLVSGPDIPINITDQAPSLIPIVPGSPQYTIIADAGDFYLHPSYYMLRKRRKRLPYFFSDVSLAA
UniProt P51808: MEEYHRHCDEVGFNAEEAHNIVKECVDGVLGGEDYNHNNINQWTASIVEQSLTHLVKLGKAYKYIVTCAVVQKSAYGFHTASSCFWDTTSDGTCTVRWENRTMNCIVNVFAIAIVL

Assay [2] deals with HPV16 minor capsid protein L2, wild type, 3xHA-tagged (L2-3xHA) (human papillomavirus type 16) (UniProt P03107). Described as above.

These are yes or no findings as the source states them, for the method shown. In cells and extracts the contact can be indirect. Some entries that bind do so weakly or less than the wild type.

This passage reports binding results from PMC8139508.

With “HPV16 L2 fused to GFP (L2-GFP) (from UniProt P03107 1-473)”, the binding entry in assay [1] is reported as “binds”.

“FLAG-tagged dynein light chain DYNLT3 (FLAG-DYNLT3) (from UniProt P51808 1-116)”: the binding result in assay [1] and in assay [2] was “binds” in each case.
